Experimental data from PubChem BioAssay AID720533 (National Center for Advancing Translational Sciences (NCATS), 2013).
Where “and” joins values, the source holds several entries; their conditions need not be identical. Equal entries are not always repeated. Hit rate of the full screen: of about 18,000 compounds, about 750 (4.2%) were called active. Inconclusive means that the source gave no clear call. Such entries were picked first, then a sample of the others. The call rests on the fitted dose curve; tested in HEK293 cells. A potency beside an inconclusive call is a rough fit, not a confirmed value. A structure can be active in one record and inactive in another.

Assay: qHTS for Inhibitors of binding or entry into cells for Lassa Virus
Conditions: Lassa virus pseudotyped entry inhibition, cell-based qHTS; activity change, negative = inhibition: at 49.2 µM (top of the series) unless noted
On the % scale 0 is the no-effect control and ±100 the full control effect; potency means the concentration at half of the fitted maximal effect.

SMILES | Potency | activity change, negative = inhibition
CCc1ccc(Oc2nccc(-c3c(-c4ccc(F)cc4)ncn3C3CCNCC3)n2)cc1 | inconclusive: 11.2 µM [inhibitor, partial curve, poor fit] | 
COc1ccc(C(=O)CC(=O)c2ccc(C(C)(C)C)cc2)cc1 | inconclusive: 31.6 µM [inhibitor, single point] | 
COc1ccc2c(c1)O[C@H](c1ccc3c(c1)OCO3)[C@@H](OC(=O)N[C@H]1CCCc3ccccc31)C2=O |  | inconclusive: 14% [inhibitor] [at 8.59 µM]
COC(=O)c1ccccc1-c1cc(C)cc2c1OC(CNC(=O)C1CCOC1)C2 (stereo unspecified) |  | inactive: -27.8%
C=C(C)C(O)C=Cc1ccc(C(F)(F)F)cc1 (stereo unspecified) |  | inactive: 47.3% [at 8.59 µM]
CC1OC(n2cc(F)c(=O)[nH]c2=O)C(O)C1O (stereo unspecified) | inconclusive: 14.1 µM [inhibitor, partial curve, poor fit] | 
CC(C)(C)NC(=O)[C@@H]1C[C@@H]2CCCC[C@@H]2CN1C[C@@H](O)[C@H](Cc1ccccc1)NC(=O)[C@H](CC(N)=O)NC(=O)c1ccc2ccccc2n1 | inconclusive: 35.5 µM [inhibitor, partial curve] | 
C[C@H]1CN(c2ccc(Br)cc2)C(=O)[C@H]1CC(=O)Nc1ccccc1 |  | inactive: 9.49%
CCCCN(CCCC)CCC(O)c1cc2c(Cl)cc(Cl)cc2c2cc(C(F)(F)F)ccc12 (stereo unspecified) | inconclusive: 14.1 µM [inhibitor, single point] | 
C#C[C@]1(O)CC[C@H]2[C@@H]3CCc4cc(O)ccc4[C@H]3CC[C@@]21C | inconclusive: 22.4 µM [inhibitor, partial curve, poor fit] | 
Cc1cc2c(c(=O)n1-c1ccccc1)[C@H]1O[C@](c3ccsc3)(Cc3cc(C#N)ccc31)O2 |  | inactive: 3.92% [at 8.59 µM]
C[C@@H]1[C@@H](c2ccccc2)Oc2c(Cl)cccc2S(=O)(=O)N1Cc1cccc(Cl)c1 |  | inactive: -10.4%
CC(C)n1cnc2c(NCc3ccccc3)nc(NCCO)nc21 | inactive | 
O=S(=O)(c1ccccc1)N(CC(F)(F)F)c1ccc(C(O)(C(F)(F)F)C(F)(F)F)cc1 | inconclusive: 11.2 µM [inhibitor, partial curve] | 
CCCCCCCCCC=C[C@@H]1C[C@H]2C=CCO[P@@](=O)(O1)O2 |  | inactive: -4.34%
COc1ccc2c(c1)CCc1cnc(-n3ncc(C(=O)N(C)CCc4ccccn4)c3C)nc1-2 | inconclusive: 8.91 µM [inhibitor, partial curve, poor fit] | 
Cc1nc(N=Nc2cc([N+](=O)[O-])ccc2Cl)c(COP(=O)(O)O)c(C=O)c1O |  | inactive: -9.05%
CCOC(=O)C1=C(C)NC(C)=C(C(=O)OCC)C1c1ccccc1/C=C/C(=O)OC(C)(C)C | inconclusive: 3.16 µM [inhibitor, full curve] | 
CC(C)N(C(=O)CCl)c1ccccc1 | inconclusive: 35.5 µM [inhibitor, partial curve, poor fit] | 
COc1cc(=O)n2c(c1C(=O)NCc1nonc1C)CCN(C(=O)c1cccc(C)c1C)CC2 |  | inactive: -4.64%

SMILES | Potency | activity change, negative = inhibition
CC[C@H](NC(=O)c1c(C)c(-c2ccccc2)nc2ccccc12)c1ccccc1 | inconclusive: 35.5 µM [inhibitor, single point] | 
CCCC=Cc1ccc(CN2C(C(C)C)C(=O)N(Cc3cn(CCOCOC)nn3)CCS2(=O)=O)cc1 (stereo unspecified) | inconclusive: 3.53 µM [inhibitor, single point] | 
C=C1CC[C@H](O)C/C1=C/C=C1\CCC[C@]2(C)C([C@H](C)CCCC(C)(C)O)CC[C@@H]12 (stereo partly specified) |  | inactive: 5.45%
CCCCCCN1C[C@H](O)[C@@H](n2cc(C3CC3)nn2)C[C@H]1c1ccc(C)cc1 |  | inactive: -5.62%
O=C1Nc2ccc(-c3cccnc3)cc2C1=Cc1cc(Br)c(O)c(Br)c1 | inconclusive: 12.5 µM [inhibitor, partial curve, poor fit] | 
COc1cc(=O)n2c(c1C(=O)N(C)Cc1nonc1C)CCN(Cc1ccc(F)cc1)CC2 | inconclusive: 5.62 µM [inhibitor, partial curve, poor fit] | 
Cc1ccc([C@H]2C[C@H](n3cc(C4CC4)nn3)[C@@H](O)CN2C(=O)C2CCCCC2)cc1 |  | inconclusive: -14.9% [inhibitor]
COc1ccccc1N1CCN(c2nc(CNC(=O)c3cc(C)oc3C)nc3ccccc23)CC1 | inconclusive: 35.5 µM [inhibitor, single point] | 
C/C1=C\[C@@H](O)C(C(C)C)C(OC(=O)c2ccc(O)cc2)C/C(C)=C/CC1 (stereo partly specified) | inconclusive: 17.8 µM [inhibitor, single point] | 
c1ccc(CCCCN2CCC(c3ccccc3)CC2)cc1 | inconclusive: 17.8 µM [inhibitor, partial curve] and inconclusive: 35.5 µM [inhibitor, partial curve] | 
COC(=O)c1c(C)[nH]c(C)c1C(=O)c1ccccc1Cc1ccccc1 | inconclusive: 28.2 µM [inhibitor, partial curve] | 
COc1cccc([C@@H]2[C@@H](C)CC[C@@H]3C(=O)NC[C@H](O)CN32)c1 |  | inactive: -5.24% [at 8.59 µM]
Cc1ccc(C#C[C@@H]2C=C[C@H](Oc3ccc4c(c3)OCO4)[C@@H](CO)O2)c(C)c1 |  | inactive: 1.7% [at 8.59 µM]
CN1[C@@H]2CC[C@H]1CC(OC(=O)c1c[nH]c3ccccc13)C2 (stereo partly specified) | inconclusive: 35.5 µM [inhibitor, single point] | 
CCOC(=O)C1=C(C)c2ccccc2OC1(C)C(=O)OCC (stereo unspecified) | inconclusive: 25.1 µM [inhibitor, partial curve] | 
CCCC[C@H](CC)CN=C(N)NC(N)=NCCCCCCN=C(N)NC(N)=NC[C@@H](CC)CCCC | inconclusive: 12.6 µM [inhibitor, single point] | 
CC(=O)NS(=O)(=O)c1ccc(N)cc1 | inactive | 
CCc1cccc(N(C)C(N)=Nc2cccc3ccccc23)c1 | inconclusive: 31.6 µM [inhibitor, partial curve] | 
Cc1c(C(=O)N(CCO)C(C)C)cnn1-c1ncc2c(n1)-c1ccccc1CCC2 |  | inactive: -6.59%
c1ccc2c(c1)Sc1ccccc1N2CC1CN2CCC1CC2 (stereo unspecified) | inconclusive: 31.6 µM [inhibitor, partial curve] | 
Nc1ncnc2c1nc(Br)n2[C@@H]1O[C@H]2COP(=O)(O)O[C@@H]2[C@@H]1O | inconclusive: 3.55 µM [inhibitor, partial curve, poor fit] | 

A section from further up, for reference:
SMILES | Potency | activity change, negative = inhibition
CC[C@H](NC(=O)c1c(C)c(-c2ccccc2)nc2ccccc12)c1ccccc1 | inconclusive: 35.5 µM [inhibitor, single point] | 
CCCC=Cc1ccc(CN2C(C(C)C)C(=O)N(Cc3cn(CCOCOC)nn3)CCS2(=O)=O)cc1 (stereo unspecified) | inconclusive: 3.53 µM [inhibitor, single point] | 

(cont.)

SMILES | Potency | activity change, negative = inhibition
Oc1cc[c]([Hg][Cl])cc1 | active: 3.55 µM and active: 4.47 µM | 
COc1cccc2c1C(=O)c1c(O)c3c(c(O)c1C2=O)C[C@@](O)(C(C)=O)C[C@@H]3O[C@H]1C[C@H](N)[C@H](O)[C@H](C)O1 | active: 35.5 µM | 
NC(=O)NCCC[C@H](N)C(=O)O |  | inactive: 7.21%
CS(=O)(=O)CCNCc1ccc(-c2ccc3ncnc(Nc4ccc(OCc5cccc(F)c5)c(C(F)(F)F)c4)c3c2)o1 | inconclusive: 19.9 µM [inhibitor, single point] | 
O=S(=O)(O)c1cc(O)c2c(N=Nc3ccc(Nc4ccccc4)c4c(S(=O)(=O)O)cccc34)cc(S(=O)(=O)O)cc2c1 | inconclusive: 6.31 µM [inhibitor, partial curve] | 
COC(=O)NC(c1ccc2c(c1)OCO2)C(C(=O)OC)C(=O)OC (stereo unspecified) | inconclusive: 2.82 µM [inhibitor, single point] | 
CC[C@H]1[C@@H]2C[C@H]3[C@@H]4N(C)c5ccccc5[C@]45C[C@@H](C2[C@H]5O)N3[C@@H]1O (stereo partly specified) |  | inactive: 0.331% [at 17.8 µM]
CCc1noc(C)c1C(=O)NCCN1Cc2cc(OC)ccc2OC(CC)C1 (stereo unspecified) |  | inactive: -8.14%
COC(=O)CC1C(C)(C)C(=O)C2CC3=C(CC[C@]4(C)C3=CC(=O)OC4c3ccoc3)[C@@]1(C)C2=O (stereo partly specified) | inconclusive: 35.5 µM [inhibitor, single point] | 
CCN(CC)CC(=O)Nc1c(C)cccc1C | inconclusive: 35.5 µM [inhibitor, single point] | 
O=C1C(I)=CC(=C(c2cc(I)c(O)c(I)c2)c2ccccc2C(=O)O)C=C1I | inconclusive: 15.8 µM [inhibitor, partial curve] | 
COc1ccc(-c2c(C)cc3oc(=O)cc(-c4ccccc4)c3c2C)cc1C=O | inconclusive: 10 µM [inhibitor, partial curve] | 
CC1=C[C@@H](C)O[C@@]2(C1)C(=O)Nc1cccc(Br)c12 |  | inactive: -37.4% [at 8.59 µM]
CC/C=C\C/C=C\C/C=C\CCCCCCCCCCCC(=O)O | inconclusive: 1.12 µM [inhibitor, full curve, poor fit] | 
COC(C)(C)CCCC(C)C/C=C/C(C)=C/C(=O)OC(C)C (stereo unspecified) | active: 14.1 µM and inactive | 
COc1ccccc1C1CC(=O)Oc2cc(C)cc(C)c21 (stereo unspecified) | inconclusive: 56.2 µM [inhibitor, single point] | 
COc1ccc(C(=O)C2C3C4COC(O4)C(=O)C3C3C=Cc4ccccc4N32)c(OC)c1 (stereo unspecified) | inconclusive: 25.1 µM [inhibitor, partial curve] | 
CO[C@@H]1[C@@H](O[C@@H]2O[C@H](C)[C@@H](O[C@H]3C[C@@](C)(O)[C@@H](OC(=O)CC(C)C)[C@H](C)O3)[C@H](N(C)C)[C@H]2O)[C@@H](CC=O)C[C@@H](C)C(=O)/C=C/C2OC2C[C@@H](C)OC(=O)C[C@H]1OC(C)=O (stereo partly specified) | inconclusive: 28.2 µM [inhibitor, partial curve] | 
